Results on 56 compounds are retold here after PubChem BioAssay AID2685 (National Center for Advancing Translational Sciences (NCATS), 2010).

This is one part of the list. Shown are side measurements of this screen, not its main read-out; they come without a call. Most of these compounds were active or inconclusive in the main read-out, so they are no random draw. Words in brackets tell the shape of the fitted curve; partial curves, single points and poor fits give uncertain potencies.

The experiment is described as follows: qHTS Assay for Lipid Storage Modulators in Drosophila S3 Cells.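 On cell number change: cells counted by Cell Tracker Red CMTPX staining in the red channel.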 The following applies: BODIPY lipid droplet fluorescence, 18-24 h; for cell number change: measured here: cell count max response, cells fed with added oleic acid. A digest of the protocol: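 Drosophila S3 cells got compounds at several concentrations plus oleic acid (400 uM solution). Laser-scanning cytometry with 488 nm excitation read lipid droplets at 500-530 nm and cells at 575-640 nm. Percent activity was relative to 20 uM Triacsin C.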

[1] abbreviates: measured here: cell number channel AC50, cells fed with added oleic acid.
Where [2] appears, read: measured here: lipid fluorescence (Fed channel) AC50, cells fed with added oleic acid.

For the compound `CCC(C)(NC(=O)c1ccc(=O)[nH]c1)C(=O)NC1CCCC1` (centres undefined), the cell number change was -58%. Besides, under setting [1], the AC50 is 25.9 µM [falling, partial curve, poor fit]. The AC50 under setting [2] is 29.1 µM [falling, single point].

With `COc1cc2c(cc1NC(=O)COC(=O)c1ccccc1)oc1ccccc12`, the AC50 is, setting by setting: under setting [1], 0.13 µM [rising, full curve, poor fit]; under setting [2], 0.651 µM [rising, partial curve, poor fit].

For the compound `Cn1ccnc1SCC(=O)c1c[nH]c2ccccc12`, under setting [2], the AC50 is 0.082 µM [rising, partial curve, poor fit].

As for `COc1cccc(CN(C)C(=O)CNC(=O)c2cccs2)c1OC`, the cell number change came to 4.29%. The AC50 under setting [1] is 0.731 µM [falling, full curve]. Besides, under setting [2], the AC50 was 1.03 µM [falling, full curve].

For `COc1ccc(NC(=O)COc2cccc3c2CCN(C)C3=O)c(OC)c1`, the cell number change is -26.7%.

As for `COc1ccc(Nc2ccc(N3C(=O)CCC3=O)cc2[N+](=O)[O-])cn1`, the cell number change stood at 4.88%. In addition, the AC50 under setting [2] is 32.6 µM [rising, single point].

On to `NC(=O)c1cccc2cc3ccccc3cc12`, for which the cell number change is -69.4%. For the same compound, the AC50 under setting [1] was 0.116 µM [falling, full curve, poor fit].

For `O=C(O)c1ccc(-c2nc(-c3ccc(Cl)cc3Cl)cs2)cc1`, the cell number change was -7.52%. Under setting [2], the AC50 was 6.51 µM [falling, single point].

Consider `Cc1cccn2c(CN(C)C3CCCc4ccccc43)c(C(=O)N3CCOCC3)nc12` (centres undefined), for which the cell number change was 3.56%. In addition, the AC50 under setting [2] was 3.66 µM [rising, single point].

In the case of `CC(Sc1nnc(-c2cccs2)n1-c1ccccc1)C(=O)NCc1ccc2c(c1)OCO2` (centres undefined), the cell number change is -1.43%.

With `COc1ccc(C2=NN(C(C#N)c3ccc(OC)c(OC)c3)C(c3ccccc3)C2)cc1` (centres undefined), the AC50 reads like this: under setting [1], 1.3 µM [rising, partial curve]; under setting [2], 0.461 µM [rising, single point].

As to `CCOc1cc2[nH]c(=S)n(Cc3ccc(C(=O)NCCCOC)cc3)c(=O)c2cc1OCC`, the cell number change worked out at 101%. The AC50 under setting [1] is 6.51 µM [falling, single point].

Regarding `Cc1c(CCO)c(=O)oc2n[nH]c(-c3ccccc3)c12`, the cell number change worked out at 57.3%. For the same compound, the AC50 under setting [1] was 29.1 µM [rising, single point].

With `O=C(O)c1cccc(C(=O)Nc2cccc(NC(=O)C3CCCO3)c2)c1` (centres undefined), the cell number change was -1.35%. Moreover, the AC50 under setting [2] is 1.84 µM [falling, partial curve].

As to `CC(C)CNC(=O)COC(=O)c1ccccc1SCC(=O)NCC(C)C`, the cell number change is 68.6%. The half-maximal activity concentration (AC50) under setting [2] was 18.4 µM [rising, partial curve].

Turning to `O=C(CNC1CCN(Cc2ccccc2)CC1)Nc1ccc(S(=O)(=O)N2CCCCC2)cc1`, the cell number change was -26.8%. Further, the AC50 under setting [1] was 0.517 µM [falling, full curve]. In addition, under setting [2], the AC50 was 20.6 µM [falling, partial curve, poor fit].

Consider `CCOC(=O)C1CCCN(Cc2ccc3c(c2)OCO3)C1` (centres undefined), for which the cell number change came to 25.3%. Moreover, the AC50 under setting [2] was 6.51 µM [rising, full curve, poor fit].

Consider `O=C(NNc1c(F)c(F)cc(F)c1F)c1cc2ccccc2oc1=O`, for which the cell number change stood at 12.7%.

As to `Cc1cc(N2CCOCC2)ccc1/C=C\[N+](=O)[O-]`, the cell number change was -41.2%. The AC50 under setting [1] was 11.6 µM [falling, partial curve]. Besides, the AC50 under setting [2] was 4.61 µM [falling, full curve].

`CCCCC(=O)N/N=C(/C)C1=C(C)C(C)(C)OC1=O`: the cell number change was found to be 79.6%. Besides, the AC50 under setting [2] was 0.259 µM [rising, partial curve, poor fit].

Turning to `COc1cc(NC(=O)c2cccc(F)c2)cc(OC)c1OC`, the AC50 runs as follows: under setting [1], 0.651 µM [rising, single point]; under setting [2], 0.58 µM [rising, single point].

`Cc1cc(C)n(C(=O)CNC(=O)c2ccco2)n1`: the AC50 is 6.51 µM [falling, single point] under setting [1] and 5.8 µM [falling, full curve] under setting [2].

Take `N#Cc1ccccc1NC(=O)COC(=O)COc1ccccc1[N+](=O)[O-]`: the cell number change is -46.4%. For the same compound, the AC50 under setting [1] was 0.651 µM [falling, full curve].

With `CCN(CC)CCOc1ccc2c(c1)C(=NO)c1cc(OCCN(CC)CC)ccc1-2`, the AC50 under setting [2] is 4.11 µM [falling, single point].

Regarding `O=C(O)c1cccnc1SC1CC(=O)N(c2cccc3ccccc23)C1=O` (centres undefined), the cell number change was -17.8%. Further, the AC50 under setting [2] is 29.1 µM [falling, single point].

As to `CCOC(=O)C1CCCN(S(=O)(=O)c2c(C(=O)N3CCCCC3)c(C)n(C)c2C)C1` (centres undefined), the cell number change was 21.7%. For the same compound, the AC50 under setting [2] was 29.1 µM [rising, single point].

As to `CC1CC(=O)c2cnc(NCC3CCCO3)nc2C1` (centres undefined), the cell number change is -86.7%. Besides, the AC50 under setting [1] is 23.1 µM [falling, partial curve, poor fit]. Further, the AC50 under setting [2] was 20.6 µM [falling, partial curve].

Regarding `Cc1cccc2cc(COC(=O)c3cccs3)c(=O)[nH]c12`, the cell number change worked out at 13.2%. Moreover, the AC50 under setting [2] is 0.651 µM [rising, full curve, poor fit].

Turning to `Oc1ccc(Cl)cc1Cc1cc(Cl)ccc1O`, the cell number change is -84.8%. Under setting [1], the AC50 is 20.6 µM [falling, partial curve]. The AC50 under setting [2] was 23.1 µM [falling, partial curve].

On to `CN(c1c[nH]c(=O)[nH]c1=O)C1CCCCC1`, for which the cell number change was -5.93%. In addition, the AC50 under setting [2] is 0.291 µM [falling, full curve, poor fit].

With `CC1(C)C(=O)NCCN1C(=O)CC1C(=O)NCCN1CC(c1ccccc1)c1ccccc1` (centres undefined), the cell number change was 5.79%. For the same compound, under setting [2], the AC50 is 0.82 µM [falling, full curve, poor fit].

As to `O=C(NNC(=S)Nc1ccc(Br)cc1)c1ccccc1`, the cell number change is 14.2%. The AC50 under setting [2] was 6.51 µM [rising, single point].

For `COc1cc(OC)cc(-n2nc(C(=O)NCCCN3CCOCC3)c3ccccc3c2=O)c1`, the cell number change is 8.72%. The AC50 under setting [2] is 6.51 µM [rising, full curve].

For `O=C(Nc1ccc(S(=O)(=O)NC2=NCCCCC2)cc1)c1ccco1`, the cell number change turned out to be 6.85%. The AC50 under setting [1] is 6.51 µM [rising, single point]. For the same compound, the AC50 under setting [2] was 6.51 µM [rising, partial curve, poor fit].

On to `COc1ccc(-c2[nH]ncc2CN2CCC(OCc3ccccc3)CC2)c(F)c1`, for which the cell number change amounted to 1.43%. Also, the AC50 under setting [2] was 0.092 µM [falling, full curve, poor fit].

As for `O=[N+]([O-])c1ccc(N2CCN(Cc3ccc([N+](=O)[O-])o3)CC2)cc1`, the cell number change was -23.9%. Further, the AC50 under setting [2] was 29.1 µM [falling, single point].

As for `CN(Cc1ccccc1Cl)C(=O)C1CCC(=O)N(C2CCCCCC2)C1` (centres undefined), the cell number change amounted to 13.8%. In addition, the AC50 under setting [2] is 0.651 µM [rising, full curve, poor fit].

With `O=C(OC1CCS(=O)(=O)c2sccc21)c1ccccc1` (centres undefined), the cell number change was 17.6%.

In the case of `O=C(COC(=O)c1nc(-c2ccccc2)n(-c2cccc(C(F)(F)F)c2)n1)NCc1cccs1`, the cell number change came out at 12.4%. For the same compound, the AC50 under setting [2] was 0.731 µM [rising, full curve, poor fit].

For the compound `CCN(CC)S(=O)(=O)c1ccc(NC(=O)c2ccc(Sc3nncn3C)c([N+](=O)[O-])c2)cc1`, the cell number change stood at 15%. The AC50 under setting [2] is 0.731 µM [rising, full curve, poor fit].

Regarding `O=C1CC(C(=O)O)c2ccccc2N1` (centres undefined), the cell number change is -30.8%. Moreover, the AC50 under setting [1] was 10.3 µM [falling, partial curve, poor fit].

As to `Cc1cc(C)nc(NC(=NCCc2c[nH]c3ccccc23)NC(=O)Nc2ccc(Cl)cc2)n1`, the cell number change is -29%. Further, the AC50 under setting [2] was 14.6 µM [falling, partial curve].

With `Cc1cccc(NS(=O)(=O)c2ccc(C)c(C(=O)NCc3ccncc3)c2)c1`, the cell number change stood at 37.2%. Also, the AC50 under setting [1] was 7.31 µM [rising, partial curve, poor fit]. Moreover, under setting [2], the AC50 is 8.2 µM [rising, partial curve, poor fit].

For `CSC1=NCCCN1C(=O)c1c(-c2ccccc2Cl)noc1C`, the cell number change was -60.1%. Further, the half-maximal activity concentration (AC50) under setting [1] was 6.51 µM [falling, full curve]. Moreover, the AC50 under setting [2] was 6.51 µM [falling, full curve].

Turning to `CC(C)N(C(=O)COC(=O)Cn1cnc2ccccc21)c1ccccc1`, the cell number change is 4%.

As for `COC(=O)CSc1nnc(CSc2nc(C)cc(C)n2)n1Cc1ccco1`, the cell number change was -84.1%. The AC50 under setting [1] was 29.1 µM [falling, single point].

Take `CCN(CC(=O)NCc1ccco1)S(=O)(=O)c1ccc(F)cc1`: the cell number change is 1.26%.

Turning to `O=[N+]([O-])c1cccc(N(CC(O)CN2CCCCC2)S(=O)(=O)c2ccccc2)c1` (centres undefined), the cell number change was 21.4%. Besides, under setting [2], the AC50 is 3.66 µM [falling, single point].

Turning to `COC(=O)Nc1cc(C)nc2ccccc12`, the cell number change is 1.97%. Moreover, the AC50 under setting [2] was 29.1 µM [rising, single point].

Take `COc1ccc(C(=O)O)cc1S(=O)(=O)Nc1ccccc1C(=O)NCc1ccc2c(c1)OCO2`: the cell number change is 6.12%. Besides, the AC50 under setting [2] was 0.92 µM [falling, full curve].

Turning to `Cc1onc(-c2ccccc2Cl)c1C(=O)Nc1cccnc1`, the AC50 under setting [2] was 0.291 µM [falling, partial curve, poor fit].

`O=C(NN=C1C2CC3CC(C2)CC1C3)c1cccc(S(=O)(=O)N2CCOCC2)c1`: the AC50 runs as follows: under setting [1], 0.146 µM [rising, full curve, poor fit]; under setting [2], 0.13 µM [rising, full curve, poor fit].

For the compound `OCc1n[nH]c(CO)n1`, the cell number change is -1.79%. Besides, the AC50 under setting [2] is 29.1 µM [falling, single point].

In the case of `O=C(Nc1ccccc1)C1CCCN1C(=O)Nc1ccccc1[N+](=O)[O-]` (centres undefined), the cell number change was -29.7%. Further, the AC50 under setting [2] was 0.82 µM [falling, partial curve].

Regarding `O=C(NC1CCN(C(=O)N2c3ccccc3Sc3ccccc32)CC1)c1ccco1`, the cell number change is -33%. In addition, the AC50 under setting [1] was 23.1 µM [falling, single point]. Under setting [2], the AC50 is 13 µM [falling, partial curve].

In the case of `CN(C)c1ccc(/C=C/c2c([N+](=O)[O-])c(=O)n(C)c(=O)n2C)cc1`, the cell number change was 231%. Besides, the AC50 under setting [1] is 29.1 µM [rising, single point]. Further, the AC50 under setting [2] is 0.0731 µM [rising, full curve, poor fit].
